Source: patent publication US20120276076A1
These are yes or no findings as the source states them, for the method shown. Binding seen in cells or lysates may run through a third protein. Some entries that bind do so weakly or less than the wild type. Tags and fused reporters may be left off the sequences shown.

Sequences of proteins named here, by UniProt entry; tags and fusion partners are left off. Residues count along the entry.
UniProt P62331, residues 2-175: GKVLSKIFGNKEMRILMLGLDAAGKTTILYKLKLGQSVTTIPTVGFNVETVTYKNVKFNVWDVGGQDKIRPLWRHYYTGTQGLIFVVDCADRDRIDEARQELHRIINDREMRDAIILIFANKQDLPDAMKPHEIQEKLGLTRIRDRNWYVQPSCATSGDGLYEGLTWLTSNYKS

Biological target: ARF6-GTP (active ARF6, endogenous, from MEF lysates) (mouse) (UniProt P62331)
Assay: pull-down from MEF lysates on GST-GGA3 beads, Western blot

binding: binds
B1: GST-GGA3 (protein, UniProt Q9NZ52 1-316, looked up, not shown: a dimerising Fc or GST)
chain: MAEAEGESLESWLNKATNPSNRQEDWEYIIGFCDQINKELEGPQIAVRLLAHKIQSPQEWEALQALTVLEACMKNCGRRFHNEVGKFRFLNELIKVVSPKYLGDRVSEKVKTKVIELLYSWTMALPEEAKIKDAYHMLKRQGIVQSDPPIPVDRTLIPSPPPRPKNPVFDDEEKSKLLAKLLKSKNPDDLQEANKLIKSMVKEDEARIQKVTKRLHTLEEVNNNVRLLSEMLLHYSQEDSSDGDRELMKELFDQCENKRRTLFKLASETEDNDNSLGDILQASDNLSRVINSYKTIIEGQVINGEVATLTLPDSEG
